Data reported in patent publication US20260184815A1.
Results are given in words; binding and its absence hold for the method and conditions named. Some entries that bind do so weakly or less than the wild type.

Amino acid sequences for entries named in this document (tags omitted). A change or cut given only in a name is not applied to a line headed by its entry. Residues count along the entry.
UniProt P01042, residues 19-644: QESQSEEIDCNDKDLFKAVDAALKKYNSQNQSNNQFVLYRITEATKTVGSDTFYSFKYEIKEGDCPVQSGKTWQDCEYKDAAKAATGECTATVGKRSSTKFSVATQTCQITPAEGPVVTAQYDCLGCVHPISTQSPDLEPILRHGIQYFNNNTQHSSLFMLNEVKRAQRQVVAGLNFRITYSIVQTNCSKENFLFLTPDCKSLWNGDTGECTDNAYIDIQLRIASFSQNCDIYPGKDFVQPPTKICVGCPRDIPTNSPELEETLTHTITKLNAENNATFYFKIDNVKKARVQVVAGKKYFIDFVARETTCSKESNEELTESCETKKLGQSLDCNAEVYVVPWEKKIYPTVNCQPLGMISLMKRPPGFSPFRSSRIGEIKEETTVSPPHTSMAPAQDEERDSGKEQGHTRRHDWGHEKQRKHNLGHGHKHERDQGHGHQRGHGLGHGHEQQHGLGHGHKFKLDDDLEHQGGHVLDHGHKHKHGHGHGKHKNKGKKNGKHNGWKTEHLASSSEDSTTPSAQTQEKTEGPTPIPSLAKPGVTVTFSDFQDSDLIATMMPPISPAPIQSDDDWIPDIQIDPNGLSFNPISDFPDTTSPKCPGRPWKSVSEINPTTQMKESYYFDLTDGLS
UniProt P03952: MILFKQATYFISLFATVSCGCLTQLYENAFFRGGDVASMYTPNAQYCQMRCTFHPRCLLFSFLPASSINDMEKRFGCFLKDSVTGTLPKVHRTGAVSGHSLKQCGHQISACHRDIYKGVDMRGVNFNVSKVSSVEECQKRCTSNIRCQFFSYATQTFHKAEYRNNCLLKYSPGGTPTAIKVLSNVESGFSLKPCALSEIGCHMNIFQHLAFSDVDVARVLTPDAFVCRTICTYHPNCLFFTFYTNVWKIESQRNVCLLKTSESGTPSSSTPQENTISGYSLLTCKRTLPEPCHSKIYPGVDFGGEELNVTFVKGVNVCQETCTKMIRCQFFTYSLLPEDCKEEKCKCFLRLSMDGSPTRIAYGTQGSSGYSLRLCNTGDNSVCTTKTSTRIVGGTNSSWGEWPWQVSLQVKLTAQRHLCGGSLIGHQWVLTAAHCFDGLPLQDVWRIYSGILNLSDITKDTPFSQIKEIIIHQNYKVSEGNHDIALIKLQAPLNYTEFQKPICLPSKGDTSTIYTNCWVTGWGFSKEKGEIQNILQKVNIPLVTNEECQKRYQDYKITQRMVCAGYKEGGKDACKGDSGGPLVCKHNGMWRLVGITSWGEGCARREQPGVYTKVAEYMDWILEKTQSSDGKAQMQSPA

Biological target: high molecular weight kininogen (UniProt P01042)
Experiment: Biacore

binding: binds
Substance: human plasma kallikrein (from UniProt P03952 20-390; P03952 391-638) (enzyme)
